Measurements as given in paper PMC10014109.

T1: Flag-tagged SLAMF7 (signaling lymphocyte activation molecular family 7), full-length (mouse) (UniProt Q8BHK6)
T1 sequence: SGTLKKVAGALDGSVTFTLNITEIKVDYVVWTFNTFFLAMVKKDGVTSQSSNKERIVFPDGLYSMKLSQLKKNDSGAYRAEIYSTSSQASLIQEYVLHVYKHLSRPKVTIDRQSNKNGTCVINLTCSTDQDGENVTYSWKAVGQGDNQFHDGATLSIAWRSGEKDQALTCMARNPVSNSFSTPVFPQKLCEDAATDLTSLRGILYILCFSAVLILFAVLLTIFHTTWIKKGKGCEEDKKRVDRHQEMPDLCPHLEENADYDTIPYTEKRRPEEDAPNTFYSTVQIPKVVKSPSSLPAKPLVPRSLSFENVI


Columns and labels:
Test in all cases: co-IP; HEK 293T cells cotransfected with tagged murine constructs; IP from lysate with anti-Flag or anti-HA antibodies, immunoblot
[1] = target: T1, Flag-tagged SLAMF7 (signaling lymphocyte activation molecular family 7), full-length (mouse)
Y281F-SLAMF7 (mouse) = target: Y281F-SLAMF7 (mouse)
Y261F-SLAMF7 (mouse) = target: Y261F-SLAMF7 (mouse)
[2] = target: SLAMF7-Δintra (SLAMF7 lacking the intracellular domain) (mouse)
[3] = target: SLAMF7-Δextra (SLAMF7 lacking the extracellular domain) (mouse)
[4] = target: SLAMF7-Δtrans (SLAMF7 lacking the transmembrane domain) (mouse)
Y266F-SLAMF7 (mouse) = target: Y266F-SLAMF7 (mouse)

| binding [1] | binding (Y281F-SLAMF7 (mouse)) | binding (Y261F-SLAMF7 (mouse)) | binding [2] | binding [3] | binding [4] | binding (Y266F-SLAMF7 (mouse)) | Molecule |
| --- | --- | --- | --- | --- | --- | --- | --- |
| binds |  |  |  |  |  |  | SHIP1-ΔSH2 (SHIP1 lacking the SH2 domain) (mouse) (domain or fragment) |
| binds |  |  |  |  |  |  | SHIP1-ΔP-rich (SHIP1 lacking the proline-rich C-terminal domain) (mouse) (domain or fragment) |
|  | no binding | binds | no binding | no binding | no binding |  | HA-tagged SHIP1 (Src homology 2-containing inositol-5'-phosphatase 1), full-length (enzyme, UniProt Q9ES52 1-1191) MPAMVPGWNHGNITRSKAEELLSRAGKDGSFLVRASESIPRAYALCVLFRNCVYTYRILPNEDDKFTVQASEGVPMRFFTKLDQLIDFYKKENMGLVTHLQYPVPLEEEDAIDEAEEDTVESVMSPPELPPRNIPMSAGPSEAKDLPLATENPRAPEVTRLSLSETLFQRLQSMDTSGLPEEHLKAIQDYLSTQLLLDSDFLKTGSSNLPHLKKLMSLLCKELHGEVIRTLPSLESLQRLFDQQLSPGLRPRPQVPGEASPITMVAKLSQLTSLLSSIEDKVKSLLHEGSESTNRRSLIPPVTFEVKSESLGIPQKMHLKVDVESGKLIVKKSKDGSEDKFYSHKKILQLIKSQKFLNKLVILVETEKEKILRKEYVFADSKKREGFCQLLQQMKNKHSEQPEPDMITIFIGTWNMGNAPPPKKITSWFLSKGQGKTRDDSADYIPHDIYVIGTQEDPLGEKEWLELLRHSLQEVTSMTFKTVAIHTLWNIRIVVLAKPEHENRISHICTDNVKTGIANTLGNKGAVGVSFMFNGTSLGFVNSHLTSGSEKKLRRNQNYMNILRFLALGDKKLSPFNITHRFTHLFWLGDLNYRVELPTWEAEAIIQKIKQQQYSDLLAHDQLLLERKDQKVFLHFEEEEITFAPTYRFERLTRDKYAYTKQKATGMKYNLPSWCDRVLWKSYPLVHVVCQSYGSTSDIMTSDHSPVFATFEAGVTSQFVSKNGPGTVDSQGQIEFLACYATLKTKSQTKFYLEFHSSCLESFVKSQEGENEEGSEGELVVRFGETLPKLKPIISDPEYLLDQHILISIKSSDSDESYGEGCIALRLETTEAQHPIYTPLTHHGEMTGHFRGEIKLQTSQGKMREKLYDFVKTERDESSGMKCLKNLTSHDPMRQWEPSGRVPACGVSSLNEMINPNYIGMGPFGQPLHGKSTLSPDQQLTAWSYDQLPKDSSLGPGRGEGPPTPPSQPPLSPKKFSSSTANRGPCPRVQEARPGDLGKVEALLQEDLLLTKPEMFENPLYGSVSSFPKLVPRKEQESPKMLRKEPPPCPDPGISSPSIVLPKAQEVESVKGTSKQAPVPVLGPTPRIRSFTCSSSAEGRMTSGDKSQGKPKASASSQAPVPVKRPVKPSRSEMSQQTTPIPAPRPPLPVKSPAVLQLQHSKGRDYRDNTELPHHGKHRQEEGLLGRTAMQ |
|  | binds | binds | no binding | binds | binds | binds | HA-tagged TRAF6 (TNF receptor-associated factor 6) (protein, UniProt P70196 1-530) MSLLNCENSCGSSQSSSDCCAAMAASCSAAVKDDSVSGSASTGNLSSSFMEEIQGYDVEFDPPLESKYECPICLMALREAVQTPCGHRFCKACIIKSIRDAGHKCPVDNEILLENQLFPDNFAKREILSLTVKCPNKGCLQKMELRHLEDHQVHCEFALVNCPQCQRPFQKCQVNTHIIEDCPRRQVSCVNCAVSMAYEEKEIHDQSCPLANIICEYCGTILIREQMPNHYDLDCPTAPIPCTFSVFGCHEKMQRNHLARHLQENTQLHMRLLAQAVHNVNLALRPCDAASPSRGCRPEDPNYEETIKQLESRLVRQDHQIRELTAKMETQSMYVGELKRTIRTLEDKVAEMEAQQCNGIYIWKIGNFGMHLKSQEEERPVVIHSPGFYTGRPGYKLCMRLHLQLPTAQRCANYISLFVHTMQGEYDSHLPWPFQGTIRLTILDQSEALIRQNHEEVMDAKPELLAFQRPTIPRNPKGFGYVTFMHLEALRQGTFIKDDTLLVRCEVSTRFDMGGLRKEGFQPRSTDAGV |

Results are given in words; binding and its absence hold for the method and conditions named. Binding seen in cells or lysates may run through a third protein. For some of these results: Binding calls can cover weak binding; strength is not graded here. Sequences can lack the tags named with a protein.
